PubChem BioAssay AID686938, Drosophila RNAi Screening Center | 2013
The screen tested about 23,000 reagents; shown is an unselected part of those with a known target gene and a result. Over the whole deposit, 75 (0.33%) are marked active. 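Raw plate signals without normalisation; calls rest on plate z-scores that were not deposited; ratio present for only 364 wells.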 Reagents against one gene are numbered here. Not given: the dose of the treatment.

- Screen: 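Looking for CRAC channel components and the factors controlling them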 (primary screen)
- Cell system: Drosophila S2R+ cells
- Reagents: long dsRNA against Drosophila genes, about 0.25 µg dsRNA per well, roughly 10,000 cells
- Time to read-out: 5 days of knock-down before the calcium assay
- Challenge: thapsigargin (SERCA pump blocker) to empty calcium stores; entry signal taken 4 min after adding it
- Measurement: 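Duplicate raw fluo-4 intensities per well from a plate reader, at rest and four minutes after thapsigargin emptied calcium stores; entry-to-rest ratio filled for only some wells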
- Reading the numbers: calcium entry signal: higher = stronger calcium signal after store depletion; entry to resting ratio: higher = more calcium entry relative to resting level; resting calcium signal: higher = higher resting calcium signal
- Rule for the call: 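Hit if the duplicate-averaged plate z-score for entry over resting signal is under −3; wells with weak total dye signal (Fmax z < −2) or more than 5 off-targets removed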
- Calls: active = strongly reduced calcium entry; inactive = no strong reduction

| target | reagent | calcium entry signal, replicate 1 (fluorescence units) | calcium entry signal, replicate 2 (fluorescence units) | entry to resting ratio | resting calcium signal, replicate 1 (fluorescence units) | resting calcium signal, replicate 2 (fluorescence units) | activity call |
| --- | --- | --- | --- | --- | --- | --- | --- |
| CG17147 | 1 | 1.74e7 | 3.16e7 | – | 1.00e7 | 1.47e7 | inactive |
| mRpL55 | 1 | 2.61e7 | 3.83e7 | – | 3.92e7 | 1.35e7 | inactive |
| CG8249 | 1 | 3.08e7 | 3.30e7 | – | 1.41e7 | 1.60e7 | inactive |
| CG34457 | 1 | 4.34e7 | 5.71e7 | – | 2.08e7 | 2.76e7 | inactive |
| Ipp | 1 | 4.45e7 | 6.38e7 | – | 2.08e7 | 5.09e7 | inactive |
| CG14422 | 1 | 6.38e7 | 6.01e7 | 2.1 | 3.08e7 | 2.42e7 | inactive |
| mrj | 1 | 3.86e7 | 4.44e7 | – | 1.82e7 | 1.90e7 | inactive |
| CG7906 | 1 | 2.50e7 | 3.18e7 | – | 1.15e7 | 2.34e7 | inactive |
| RhoL | 1 | 3.50e7 | 3.71e7 | – | 1.64e7 | 1.82e7 | inactive |
| Gasp | 1 | 3.27e7 | 4.20e7 | – | 1.47e7 | 1.94e7 | inactive |
| mre11 | 1 | 4.23e7 | 3.47e7 | – | 1.88e7 | 1.43e7 | inactive |
| mre11 | 2 | 4.00e7 | 3.14e7 | – | 2.43e7 | 1.46e7 | inactive |
| nwk | 1 | 5.97e7 | 4.33e7 | – | 3.86e7 | 1.71e7 | inactive |
| nwk | 2 | 3.12e7 | 2.94e7 | – | 1.49e7 | 1.27e7 | inactive |
| Alp6 | 1 | 3.39e7 | 2.76e7 | – | 1.40e7 | 1.28e7 | inactive |
| CG3097 | 1 | 3.53e7 | 3.57e7 | – | 1.63e7 | 1.41e7 | inactive |
| NFAT | 1 | 1.36e7 | 1.61e7 | – | 8.22e6 | 8.13e6 | inactive |
| NFAT | 2 | 4.53e7 | 4.81e7 | – | 2.22e7 | 2.20e7 | inactive |
| GATAd | 1 | 4.00e7 | – | – | 2.11e7 | – | inactive |
| lab | 1 | 4.23e7 | 3.18e7 | – | 2.16e7 | 1.57e7 | inactive |
| veil | 1 | 3.00e7 | 2.52e7 | – | 1.53e7 | 1.25e7 | inactive |
| Nmdar1 | 1 | 3.10e7 | 5.33e7 | – | 1.48e7 | 2.59e7 | inactive |
| Nmdar1 | 2 | 3.32e7 | 2.80e7 | – | 1.67e7 | 1.36e7 | inactive |
| Kap-alpha1 | 1 | 3.01e7 | 4.48e7 | – | 1.52e7 | 2.04e7 | inactive |
| CG43103 | 1 | 3.05e7 | 4.05e7 | – | 1.40e7 | 1.84e7 | inactive |
| CG16824 | 1 | 3.33e7 | 1.49e7 | – | 1.58e7 | 8.29e6 | inactive |
| Atg8b | 1 | 2.53e7 | 2.84e7 | – | 2.86e7 | 1.18e7 | inactive |
| CG10347 | 1 | 3.26e7 | 4.54e7 | – | 1.67e7 | 2.12e7 | inactive |
| Rm62 | 1 | 3.64e7 | 4.68e7 | – | 1.73e7 | 2.20e7 | inactive |
| CG3632 | 1 | 3.21e7 | 4.71e7 | – | 1.59e7 | 2.09e7 | inactive |
| CG3632 | 2 | 4.22e7 | 3.70e7 | – | 1.88e7 | 1.79e7 | inactive |
| Hsp70Bc | 1 | 3.59e7 | 3.79e7 | – | 1.80e7 | 1.95e7 | inactive |
| CG6766 | 1 | 3.39e7 | 6.73e7 | – | 1.52e7 | 2.89e7 | inactive |
| Dhc93AB | 1 | 4.21e7 | 4.45e7 | – | 6.12e7 | 2.12e7 | inactive |
| Cpes | 1 | 1.74e7 | – | – | 1.02e7 | – | inactive |
| CG1631 | 1 | 5.56e7 | 5.02e7 | – | 2.61e7 | 2.02e7 | inactive |
| AP-1mu | 1 | 3.29e7 | 4.58e7 | – | 1.58e7 | 2.02e7 | inactive |
| CG8765 | 1 | 2.77e7 | 4.48e7 | – | 1.61e7 | 2.37e7 | inactive |
| CG8765 | 2 | 4.68e7 | 3.03e7 | – | 2.31e7 | 1.52e7 | inactive |
| euc | 1 | 3.05e7 | 3.68e7 | – | 4.45e7 | 1.56e7 | inactive |

5 entries already listed, sorted by “resting calcium signal, replicate 1 (fluorescence units)”, highest first.
| target | reagent | calcium entry signal, replicate 1 (fluorescence units) | calcium entry signal, replicate 2 (fluorescence units) | entry to resting ratio | resting calcium signal, replicate 1 (fluorescence units) | resting calcium signal, replicate 2 (fluorescence units) | activity call |
| --- | --- | --- | --- | --- | --- | --- | --- |
| NFAT | 2 | 4.53e7 | 4.81e7 | – | 2.22e7 | 2.20e7 | inactive |
| lab | 1 | 4.23e7 | 3.18e7 | – | 2.16e7 | 1.57e7 | inactive |
| GATAd | 1 | 4.00e7 | – | – | 2.11e7 | – | inactive |
| CG3097 | 1 | 3.53e7 | 3.57e7 | – | 1.63e7 | 1.41e7 | inactive |
| NFAT | 1 | 1.36e7 | 1.61e7 | – | 8.22e6 | 8.13e6 | inactive |

The list goes on:
| target | reagent | calcium entry signal, replicate 1 (fluorescence units) | calcium entry signal, replicate 2 (fluorescence units) | entry to resting ratio | resting calcium signal, replicate 1 (fluorescence units) | resting calcium signal, replicate 2 (fluorescence units) | activity call |
| --- | --- | --- | --- | --- | --- | --- | --- |
| Tmem131 | 1 | 3.33e7 | 2.49e7 | – | 1.51e7 | 1.29e7 | inactive |
| CG11345 | 1 | 1.77e7 | 3.05e7 | – | 8.08e6 | 1.24e7 | inactive |
| Mpi | 1 | 3.19e7 | 3.06e7 | – | 1.56e7 | 1.56e7 | inactive |
| CG7133 | 1 | 3.82e7 | 4.72e7 | – | 1.79e7 | 3.26e7 | inactive |
| CG10560 | 1 | 3.04e7 | 5.65e7 | – | 1.66e7 | 2.55e7 | inactive |
| Lar | 1 | 2.56e7 | 4.20e7 | – | 1.60e7 | 2.01e7 | inactive |
| Lar | 2 | 4.46e7 | – | – | 2.35e7 | – | inactive |
| hry | 1 | 4.27e7 | 3.50e7 | – | 2.73e7 | 1.78e7 | inactive |
| hry | 2 | 3.64e7 | 3.68e7 | – | 2.08e7 | 1.67e7 | inactive |
| CG17380 | 1 | 3.46e7 | 4.78e7 | – | 1.87e7 | 1.92e7 | inactive |
| Polr1F | 1 | 2.79e7 | – | – | 1.19e7 | – | active |
| LSm7 | 1 | 2.46e7 | 1.55e7 | – | 1.36e7 | 8.69e6 | inactive |
| Frmd5 | 1 | 4.20e7 | 6.72e7 | – | 1.97e7 | 2.70e7 | inactive |
| Ntf-2r | 1 | 4.55e7 | 3.71e7 | – | 2.20e7 | 1.94e7 | inactive |
| Rap2l | 1 | 3.55e7 | 4.56e7 | – | 2.01e7 | 1.93e7 | inactive |
| CG31245 | 1 | 3.75e7 | 3.86e7 | – | 6.87e7 | 1.73e7 | inactive |
| fred | 1 | 4.07e7 | 3.96e7 | – | 2.03e7 | 1.83e7 | inactive |
| fred | 2 | 3.61e7 | 4.71e7 | – | 1.70e7 | 2.26e7 | inactive |
| fred | 3 | 4.07e7 | 4.31e7 | – | 1.96e7 | 2.03e7 | inactive |
| fred | 4 | 4.08e7 | 4.25e7 | – | 2.02e7 | 1.96e7 | inactive |
| fred | 5 | 3.49e7 | 4.02e7 | – | 1.66e7 | 1.87e7 | inactive |
